Measurements taken from the supplement of paper PMC10849652.
Some of the results follow.

The chains behind the UniProt entries cited, without tags or fusion partners. Where a name states a change or a piece, a line headed by the entry shows the natural chain unless it says otherwise.
UniProt P55196: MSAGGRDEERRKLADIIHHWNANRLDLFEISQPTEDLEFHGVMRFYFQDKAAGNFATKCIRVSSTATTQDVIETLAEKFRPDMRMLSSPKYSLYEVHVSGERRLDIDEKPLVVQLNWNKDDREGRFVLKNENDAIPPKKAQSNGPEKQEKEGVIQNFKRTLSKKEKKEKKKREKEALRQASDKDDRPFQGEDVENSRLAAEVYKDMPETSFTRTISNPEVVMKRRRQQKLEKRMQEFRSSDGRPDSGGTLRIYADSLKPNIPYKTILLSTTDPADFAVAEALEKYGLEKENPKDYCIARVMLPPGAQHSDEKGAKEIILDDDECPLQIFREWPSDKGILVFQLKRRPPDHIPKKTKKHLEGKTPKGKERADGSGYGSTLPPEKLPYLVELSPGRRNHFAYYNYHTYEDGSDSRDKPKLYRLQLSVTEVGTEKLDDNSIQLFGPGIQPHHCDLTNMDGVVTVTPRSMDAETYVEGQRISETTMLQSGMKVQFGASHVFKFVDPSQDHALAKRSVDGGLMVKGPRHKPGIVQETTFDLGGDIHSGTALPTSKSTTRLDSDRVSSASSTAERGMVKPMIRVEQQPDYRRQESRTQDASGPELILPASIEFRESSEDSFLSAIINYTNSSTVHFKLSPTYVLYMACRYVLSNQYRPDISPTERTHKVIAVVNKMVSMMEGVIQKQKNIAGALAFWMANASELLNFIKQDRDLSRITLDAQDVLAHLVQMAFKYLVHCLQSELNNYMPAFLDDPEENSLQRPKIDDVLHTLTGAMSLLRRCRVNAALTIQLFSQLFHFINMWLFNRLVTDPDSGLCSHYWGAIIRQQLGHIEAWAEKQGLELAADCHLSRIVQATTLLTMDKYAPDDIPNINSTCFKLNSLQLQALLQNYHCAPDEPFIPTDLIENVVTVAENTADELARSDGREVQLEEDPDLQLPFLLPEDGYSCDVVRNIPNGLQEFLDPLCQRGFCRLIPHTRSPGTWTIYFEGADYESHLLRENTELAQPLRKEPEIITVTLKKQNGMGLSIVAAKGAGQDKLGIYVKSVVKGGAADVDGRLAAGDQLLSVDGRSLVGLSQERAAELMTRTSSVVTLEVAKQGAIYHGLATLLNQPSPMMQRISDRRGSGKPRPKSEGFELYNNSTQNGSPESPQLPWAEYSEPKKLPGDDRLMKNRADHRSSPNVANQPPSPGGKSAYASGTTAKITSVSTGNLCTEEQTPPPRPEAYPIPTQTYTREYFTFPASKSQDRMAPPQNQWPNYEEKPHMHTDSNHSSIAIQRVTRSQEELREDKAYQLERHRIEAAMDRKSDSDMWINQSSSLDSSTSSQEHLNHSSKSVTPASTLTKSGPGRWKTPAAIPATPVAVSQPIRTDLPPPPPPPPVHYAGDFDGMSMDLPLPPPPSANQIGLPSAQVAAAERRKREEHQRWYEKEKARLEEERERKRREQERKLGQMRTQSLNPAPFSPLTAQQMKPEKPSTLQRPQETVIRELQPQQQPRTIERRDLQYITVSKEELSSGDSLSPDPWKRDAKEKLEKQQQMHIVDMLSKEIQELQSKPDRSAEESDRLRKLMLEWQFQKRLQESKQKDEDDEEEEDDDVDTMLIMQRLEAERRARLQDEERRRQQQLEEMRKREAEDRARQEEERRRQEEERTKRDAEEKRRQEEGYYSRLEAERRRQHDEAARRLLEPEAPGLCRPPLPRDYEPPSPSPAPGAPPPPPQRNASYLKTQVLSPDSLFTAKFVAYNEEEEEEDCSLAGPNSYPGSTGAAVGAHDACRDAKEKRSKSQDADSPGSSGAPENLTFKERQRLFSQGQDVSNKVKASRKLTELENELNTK
UniProt O43865, whole entry, looked up: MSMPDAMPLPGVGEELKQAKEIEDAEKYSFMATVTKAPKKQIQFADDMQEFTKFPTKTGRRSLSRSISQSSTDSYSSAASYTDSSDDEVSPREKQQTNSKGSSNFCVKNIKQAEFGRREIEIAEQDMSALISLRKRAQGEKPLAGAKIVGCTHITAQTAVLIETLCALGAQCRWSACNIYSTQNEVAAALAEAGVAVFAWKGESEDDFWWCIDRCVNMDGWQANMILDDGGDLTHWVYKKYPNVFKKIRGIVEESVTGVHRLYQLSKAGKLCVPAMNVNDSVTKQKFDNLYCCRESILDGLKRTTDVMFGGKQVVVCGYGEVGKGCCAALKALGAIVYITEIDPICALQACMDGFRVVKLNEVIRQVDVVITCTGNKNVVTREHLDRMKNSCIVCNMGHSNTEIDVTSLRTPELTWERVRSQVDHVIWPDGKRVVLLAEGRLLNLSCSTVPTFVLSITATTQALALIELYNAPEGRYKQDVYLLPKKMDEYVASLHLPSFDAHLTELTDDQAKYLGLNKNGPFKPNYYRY
UniProt P00352: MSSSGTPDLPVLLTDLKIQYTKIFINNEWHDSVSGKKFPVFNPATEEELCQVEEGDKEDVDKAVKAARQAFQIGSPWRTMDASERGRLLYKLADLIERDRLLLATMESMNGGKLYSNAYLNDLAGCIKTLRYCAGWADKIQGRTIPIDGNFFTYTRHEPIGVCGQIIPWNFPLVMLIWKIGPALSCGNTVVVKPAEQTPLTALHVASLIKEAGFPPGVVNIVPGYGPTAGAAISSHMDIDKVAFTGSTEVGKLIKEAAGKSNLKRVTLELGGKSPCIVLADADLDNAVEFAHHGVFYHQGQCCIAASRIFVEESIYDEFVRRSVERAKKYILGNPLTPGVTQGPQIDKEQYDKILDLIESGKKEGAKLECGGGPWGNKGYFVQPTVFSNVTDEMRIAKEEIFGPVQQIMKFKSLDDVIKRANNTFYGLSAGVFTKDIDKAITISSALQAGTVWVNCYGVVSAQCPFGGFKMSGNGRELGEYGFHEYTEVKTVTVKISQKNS
UniProt Q9NRZ7: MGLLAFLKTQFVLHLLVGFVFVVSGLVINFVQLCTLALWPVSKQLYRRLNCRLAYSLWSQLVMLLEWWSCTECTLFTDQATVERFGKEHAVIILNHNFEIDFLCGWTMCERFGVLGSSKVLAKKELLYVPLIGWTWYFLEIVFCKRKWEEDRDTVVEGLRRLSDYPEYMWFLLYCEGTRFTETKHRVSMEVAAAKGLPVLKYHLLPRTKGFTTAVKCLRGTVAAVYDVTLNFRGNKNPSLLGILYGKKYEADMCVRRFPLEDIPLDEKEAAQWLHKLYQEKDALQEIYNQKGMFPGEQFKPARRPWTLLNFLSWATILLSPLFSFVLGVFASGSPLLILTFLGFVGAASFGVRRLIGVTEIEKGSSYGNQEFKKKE
UniProt Q8WYP5: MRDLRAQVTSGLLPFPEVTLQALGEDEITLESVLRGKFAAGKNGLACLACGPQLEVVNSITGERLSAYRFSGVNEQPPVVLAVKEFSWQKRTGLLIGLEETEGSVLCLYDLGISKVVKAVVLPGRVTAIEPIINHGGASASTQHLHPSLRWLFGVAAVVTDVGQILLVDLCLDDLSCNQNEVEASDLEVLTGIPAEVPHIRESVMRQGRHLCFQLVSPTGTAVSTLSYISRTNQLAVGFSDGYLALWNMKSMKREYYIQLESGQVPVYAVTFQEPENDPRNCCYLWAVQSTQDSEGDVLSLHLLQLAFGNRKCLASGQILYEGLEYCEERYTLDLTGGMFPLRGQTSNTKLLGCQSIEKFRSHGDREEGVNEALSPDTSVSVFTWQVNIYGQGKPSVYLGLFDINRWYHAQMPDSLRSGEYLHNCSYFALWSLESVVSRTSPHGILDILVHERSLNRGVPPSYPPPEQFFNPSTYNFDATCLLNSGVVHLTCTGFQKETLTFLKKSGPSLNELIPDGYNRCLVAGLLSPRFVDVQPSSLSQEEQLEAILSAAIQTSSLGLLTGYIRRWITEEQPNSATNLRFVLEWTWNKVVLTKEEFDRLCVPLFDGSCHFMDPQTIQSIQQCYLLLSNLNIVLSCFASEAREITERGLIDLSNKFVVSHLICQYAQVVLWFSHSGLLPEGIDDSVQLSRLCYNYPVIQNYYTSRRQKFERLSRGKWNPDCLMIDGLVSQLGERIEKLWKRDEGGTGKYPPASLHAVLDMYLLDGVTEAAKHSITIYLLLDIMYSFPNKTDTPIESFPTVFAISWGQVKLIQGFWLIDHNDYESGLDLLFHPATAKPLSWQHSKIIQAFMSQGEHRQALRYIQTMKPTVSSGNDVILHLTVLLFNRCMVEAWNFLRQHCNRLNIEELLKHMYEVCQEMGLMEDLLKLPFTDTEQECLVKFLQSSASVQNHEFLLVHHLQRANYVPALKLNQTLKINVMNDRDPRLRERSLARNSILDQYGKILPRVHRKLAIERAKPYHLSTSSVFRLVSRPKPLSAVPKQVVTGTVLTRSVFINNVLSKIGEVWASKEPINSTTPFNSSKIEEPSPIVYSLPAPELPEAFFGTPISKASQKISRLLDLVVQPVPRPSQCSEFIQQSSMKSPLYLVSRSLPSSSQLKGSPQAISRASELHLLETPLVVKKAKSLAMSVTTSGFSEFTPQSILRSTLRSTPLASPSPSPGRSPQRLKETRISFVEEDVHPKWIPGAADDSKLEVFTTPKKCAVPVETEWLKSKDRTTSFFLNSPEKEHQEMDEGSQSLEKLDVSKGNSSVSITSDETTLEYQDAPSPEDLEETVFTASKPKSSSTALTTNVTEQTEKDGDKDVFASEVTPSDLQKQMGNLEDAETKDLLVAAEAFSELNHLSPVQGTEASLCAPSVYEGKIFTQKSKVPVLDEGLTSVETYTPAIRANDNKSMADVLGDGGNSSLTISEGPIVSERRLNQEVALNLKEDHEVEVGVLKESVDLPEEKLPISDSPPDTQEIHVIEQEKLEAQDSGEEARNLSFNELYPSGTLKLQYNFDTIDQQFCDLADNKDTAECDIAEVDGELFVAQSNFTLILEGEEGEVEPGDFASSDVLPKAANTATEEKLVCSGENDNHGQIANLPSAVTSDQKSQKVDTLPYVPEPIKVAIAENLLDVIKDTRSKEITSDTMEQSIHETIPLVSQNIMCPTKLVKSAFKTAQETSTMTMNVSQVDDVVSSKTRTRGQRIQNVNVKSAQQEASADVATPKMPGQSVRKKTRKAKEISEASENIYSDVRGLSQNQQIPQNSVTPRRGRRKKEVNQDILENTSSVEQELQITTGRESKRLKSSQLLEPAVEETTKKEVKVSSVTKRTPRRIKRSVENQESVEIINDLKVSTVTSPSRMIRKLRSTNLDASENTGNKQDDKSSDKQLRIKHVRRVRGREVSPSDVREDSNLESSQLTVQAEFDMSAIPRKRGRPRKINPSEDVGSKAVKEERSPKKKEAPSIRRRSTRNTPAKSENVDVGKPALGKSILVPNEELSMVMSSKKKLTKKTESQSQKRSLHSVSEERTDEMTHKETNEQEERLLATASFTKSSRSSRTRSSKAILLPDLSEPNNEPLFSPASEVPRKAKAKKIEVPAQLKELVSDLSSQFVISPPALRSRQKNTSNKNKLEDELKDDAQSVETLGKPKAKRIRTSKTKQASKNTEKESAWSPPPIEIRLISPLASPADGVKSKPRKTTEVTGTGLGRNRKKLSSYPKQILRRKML
UniProt P04075: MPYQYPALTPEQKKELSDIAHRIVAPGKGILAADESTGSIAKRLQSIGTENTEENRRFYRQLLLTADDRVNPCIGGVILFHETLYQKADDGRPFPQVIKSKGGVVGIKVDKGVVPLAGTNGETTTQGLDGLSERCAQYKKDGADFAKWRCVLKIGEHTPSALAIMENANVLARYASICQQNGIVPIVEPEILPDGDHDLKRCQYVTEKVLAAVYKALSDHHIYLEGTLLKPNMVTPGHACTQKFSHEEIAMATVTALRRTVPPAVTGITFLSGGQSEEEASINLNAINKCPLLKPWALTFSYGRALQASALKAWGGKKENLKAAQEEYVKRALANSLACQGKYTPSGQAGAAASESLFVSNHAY
UniProt Q9H6U8: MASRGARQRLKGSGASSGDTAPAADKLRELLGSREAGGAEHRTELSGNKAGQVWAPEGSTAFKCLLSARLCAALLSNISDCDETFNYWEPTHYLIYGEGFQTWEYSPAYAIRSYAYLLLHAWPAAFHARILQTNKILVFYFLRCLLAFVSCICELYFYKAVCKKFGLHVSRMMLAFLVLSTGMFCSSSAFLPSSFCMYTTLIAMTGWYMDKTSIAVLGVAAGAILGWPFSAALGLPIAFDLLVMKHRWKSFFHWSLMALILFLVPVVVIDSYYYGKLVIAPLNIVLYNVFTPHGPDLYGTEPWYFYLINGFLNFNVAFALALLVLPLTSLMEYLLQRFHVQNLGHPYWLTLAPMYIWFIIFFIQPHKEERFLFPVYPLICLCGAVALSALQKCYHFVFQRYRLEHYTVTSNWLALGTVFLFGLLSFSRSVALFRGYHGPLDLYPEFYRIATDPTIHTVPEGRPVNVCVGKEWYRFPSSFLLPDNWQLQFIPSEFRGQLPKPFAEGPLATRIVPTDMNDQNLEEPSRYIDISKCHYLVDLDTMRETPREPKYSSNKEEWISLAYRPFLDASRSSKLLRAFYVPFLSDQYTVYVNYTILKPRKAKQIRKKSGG

What follows are targets tested with C1=CC(=CC=C1C2=NC3=C(N2)C=C(C=C3)C(=O)N)OC4=CC=C(C=C4)Cl (assay: log2 fold change, soluble protein after heating vs DMSO (PISA); higher = thermal stabilisation; K562 cells, 10 uM, 30 min; active = over 0.2 and 3.5 SD of the protein, either way, in both replicates (recomputed)).
Method in brief: (§1)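 K562 cells at 2×10^6 cells/mL were treated with 10 μM compound for 30 min. Aliquots were heated for 3 min across 48°C-58°C, pooled, and extracted in PBS with 0.5% NP-40 at 4°C; soluble protein was the supernatant after 21,000xg for 90 min. Soluble protein was quantified by TMTpro 16plex LC-MS/MS with channel sums equalised, and reported as log2 fold change in thermal stability against DMSO controls, with values from duplicates.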
In the case of ALKBH4 (UniProt Q9NXW9), the log2 fold change is reported as inactive: 0.078. For AMD1 (UniProt P17707), the log2 fold change was inactive: 0.094. With AFDN isoform 5 (UniProt P55196) the log2 fold change was inactive: 0.01. For ALDH5A1 isoform 2 (UniProt P51649), the log2 fold change was inactive: 0.01. For ADK (UniProt P55263), the log2 fold change was inactive: -0.062. In the case of AHCYL1 (UniProt O43865), the log2 fold change is reported as inactive: -0.042. For AHCY (UniProt P23526), the log2 fold change was inactive: 0.027. AGPS (UniProt O00116) was tested, and the log2 fold change was active: 0.256. With ALDH1A1 (UniProt P00352) the log2 fold change was inactive: 0.025. With AKT2 (UniProt P31751) the log2 fold change was inactive: 0.027. In the case of AHSA1 (UniProt O95433), the log2 fold change is reported as inactive: -0.015. For ALDH2 (UniProt P05091), the log2 fold change was inactive: 0.021. AGPAT3 isoform 3 (UniProt Q9NRZ7) was tested, and the log2 fold change was inactive: -0.009. With AK2 isoform 2 (UniProt P54819) the log2 fold change was inactive: 0.003. For ALKBH3 (UniProt Q96Q83), the log2 fold change was inactive: 0.082. ADPGK (UniProt Q9BRR6) was tested, and the log2 fold change was inactive: -0.024. In the case of ALDH1B1 (UniProt P30837), the log2 fold change is reported as inactive: 0.081. For AIDA (UniProt Q96BJ3), the log2 fold change was inactive: -0.031. In the case of AHCTF1 isoform 2 (UniProt Q8WYP5), the log2 fold change is reported as inactive: 0.071. ALG14 (UniProt Q96F25) was tested, and the log2 fold change was inactive: -0.085. In the case of AK4 (UniProt P27144), the log2 fold change is reported as inactive: -0.005. For AIMP2 (UniProt Q13155), the log2 fold change was inactive: 0.02. With ALG13 (UniProt Q9NP73) the log2 fold change was inactive: 0.025. For AKR1A1 (UniProt P14550), the log2 fold change was inactive: -0.013. With AIFM2 (UniProt Q9BRQ8) the log2 fold change was inactive: 0.064. AKR1B1 (UniProt P15121) was tested, and the log2 fold change was inactive: 0.022. ADO (UniProt Q96SZ5) was tested, and the log2 fold change was inactive: 0.008. With ADH5 (UniProt P11766) the log2 fold change was inactive: -0.016. With AIMP1 isoform 2 (UniProt Q12904) the log2 fold change was inactive: -0.002. In the case of ALDOA isoform 2 (UniProt P04075), the log2 fold change is reported as inactive: -0.002. For ADPRHL2 (UniProt Q9NX46), the log2 fold change was inactive: 0.048. ALG9 isoform 3 (UniProt Q9H6U8) was tested, and the log2 fold change was inactive: 0.014.

These targets were tested with C1=CC2=C(C=CC(=C2)/C=C\3/C(=O)NC(=NCC4=CC=CS4)S3)N=C1 in the same assay as above.
Method in brief: as §1
With ALKBH4 (UniProt Q9NXW9) the log2 fold change was inactive: 0.106. With AMD1 (UniProt P17707) the log2 fold change was inactive: 0.091. In the case of AFDN isoform 5 (UniProt P55196), the log2 fold change is reported as inactive: -0.02. ALDH5A1 isoform 2 (UniProt P51649) was tested, and the log2 fold change was inactive: -0.009. With ADK (UniProt P55263) the log2 fold change was inactive: 0.079. For AHCYL1 (UniProt O43865), the log2 fold change was inactive: 0.001. AHCY (UniProt P23526) was tested, and the log2 fold change was inactive: -0.022. AGPS (UniProt O00116) was tested, and the log2 fold change was inactive: 0.055. ALDH1A1 (UniProt P00352) was tested, and the log2 fold change was inactive: -0.025. With AKT2 (UniProt P31751) the log2 fold change was inactive: 0.068. In the case of AHSA1 (UniProt O95433), the log2 fold change is reported as inactive: 0.012. In the case of ALDH2 (UniProt P05091), the log2 fold change is reported as inactive: 0.096. With AGPAT3 isoform 3 (UniProt Q9NRZ7) the log2 fold change was inactive: 0.028. AK2 isoform 2 (UniProt P54819) was tested, and the log2 fold change was inactive: -0.007. ALKBH3 (UniProt Q96Q83) was tested, and the log2 fold change was inactive: 0.007. In the case of ADPGK (UniProt Q9BRR6), the log2 fold change is reported as inactive: 0.054. For ALDH1B1 (UniProt P30837), the log2 fold change was inactive: 0.062. AIDA (UniProt Q96BJ3) was tested, and the log2 fold change was inactive: -0.009. With AHCTF1 isoform 2 (UniProt Q8WYP5) the log2 fold change was inactive: 0.005. With ALG14 (UniProt Q96F25) the log2 fold change was inactive: 0.084. AK4 (UniProt P27144) was tested, and the log2 fold change was inactive: 0.105. AIMP2 (UniProt Q13155) was tested, and the log2 fold change was inactive: -0.01. In the case of ALG13 (UniProt Q9NP73), the log2 fold change is reported as inactive: 0.101. For AKR1A1 (UniProt P14550), the log2 fold change was inactive: -0.005. AIFM2 (UniProt Q9BRQ8) was tested, and the log2 fold change was inactive: -0.025. For AKR1B1 (UniProt P15121), the log2 fold change was inactive: 0.016. ADO (UniProt Q96SZ5) was tested, and the log2 fold change was inactive: 0.044. In the case of ADH5 (UniProt P11766), the log2 fold change is reported as inactive: 0.001. In the case of AIMP1 isoform 2 (UniProt Q12904), the log2 fold change is reported as inactive: -0.013. In the case of ALDOA isoform 2 (UniProt P04075), the log2 fold change is reported as inactive: -0.061. With ADPRHL2 (UniProt Q9NX46) the log2 fold change was inactive: 0.043. With ALG9 isoform 3 (UniProt Q9H6U8) the log2 fold change was inactive: 0.041.

The targets below were run with C1=CC2=NC=CN=C2C=C1/C=C/3\C(=O)NC(=O)S3 in the same assay as above.
Method in brief: as §1
In the case of ALKBH4 (UniProt Q9NXW9), the log2 fold change is reported as inactive: -0.129. In the case of AMD1 (UniProt P17707), the log2 fold change is reported as inactive: -0.002. AFDN isoform 5 (UniProt P55196) was tested, and the log2 fold change was inactive: 0. With ALDH5A1 isoform 2 (UniProt P51649) the log2 fold change was inactive: 0.016. For ADK (UniProt P55263), the log2 fold change was inactive: 0.005. In the case of AHCYL1 (UniProt O43865), the log2 fold change is reported as inactive: 0.086. AHCY (UniProt P23526) was tested, and the log2 fold change was inactive: -0.008. For AGPS (UniProt O00116), the log2 fold change was inactive: 0.031. For ALDH1A1 (UniProt P00352), the log2 fold change was inactive: -0.026. AKT2 (UniProt P31751) was tested, and the log2 fold change was inactive: -0.023. With AHSA1 (UniProt O95433) the log2 fold change was inactive: 0.037. In the case of ALDH2 (UniProt P05091), the log2 fold change is reported as inactive: 0.022. With AGPAT3 isoform 3 (UniProt Q9NRZ7) the log2 fold change was inactive: 0.12. AK2 isoform 2 (UniProt P54819) was tested, and the log2 fold change was inactive: 0.019. For ALKBH3 (UniProt Q96Q83), the log2 fold change was inactive: -0.057. With ADPGK (UniProt Q9BRR6) the log2 fold change was inactive: 0.041. For ALDH1B1 (UniProt P30837), the log2 fold change was inactive: -0.009. For AIDA (UniProt Q96BJ3), the log2 fold change was inactive: -0.001. In the case of AHCTF1 isoform 2 (UniProt Q8WYP5), the log2 fold change is reported as inactive: -0.067. ALG14 (UniProt Q96F25) was tested, and the log2 fold change was inactive: 0.088. With AK4 (UniProt P27144) the log2 fold change was inactive: 0.02. AIMP2 (UniProt Q13155) was tested, and the log2 fold change was inactive: 0.001. ALG13 (UniProt Q9NP73) was tested, and the log2 fold change was inactive: 0.011. In the case of AKR1A1 (UniProt P14550), the log2 fold change is reported as inactive: 0.01. AIFM2 (UniProt Q9BRQ8) was tested, and the log2 fold change was inactive: -0.032. For AKR1B1 (UniProt P15121), the log2 fold change was inactive: 0.022. In the case of ADO (UniProt Q96SZ5), the log2 fold change is reported as inactive: 0.012. ADH5 (UniProt P11766) was tested, and the log2 fold change was inactive: 0.007. In the case of AIMP1 isoform 2 (UniProt Q12904), the log2 fold change is reported as inactive: 0.013. ALDOA isoform 2 (UniProt P04075) was tested, and the log2 fold change was inactive: -0.012. For ADPRHL2 (UniProt Q9NX46), the log2 fold change was inactive: 0.006. With ALG9 isoform 3 (UniProt Q9H6U8) the log2 fold change was inactive: 0.003.
